Measured values as given in paper PMC6136374.

Biological target: T1, nYFP-ABF3 (Arabidopsis thaliana) (UniProt Q9M7Q3)
T1 sequence: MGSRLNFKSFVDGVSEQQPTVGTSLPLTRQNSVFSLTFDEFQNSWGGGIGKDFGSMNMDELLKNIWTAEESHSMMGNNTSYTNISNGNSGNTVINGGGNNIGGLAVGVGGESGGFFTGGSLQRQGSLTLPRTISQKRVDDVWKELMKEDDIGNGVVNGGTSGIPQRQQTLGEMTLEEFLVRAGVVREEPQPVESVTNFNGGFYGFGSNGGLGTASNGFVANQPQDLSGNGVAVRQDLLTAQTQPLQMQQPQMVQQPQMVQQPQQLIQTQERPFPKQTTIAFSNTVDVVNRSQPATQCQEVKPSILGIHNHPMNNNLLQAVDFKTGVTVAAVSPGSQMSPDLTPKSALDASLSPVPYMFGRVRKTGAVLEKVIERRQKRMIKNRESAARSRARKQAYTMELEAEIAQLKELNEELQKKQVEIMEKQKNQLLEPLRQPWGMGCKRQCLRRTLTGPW
Test: split reporter; BiFC with nYFP (pXY106) and cYFP (pXY104) fusions co-transformed into Nicotiana benthamiana leaf epidermal cells; confocal microscopy after 48 hours

binding: no binding
Substance: cYFP only (YFP C-terminal fragment) (domain or fragment)

These are yes or no findings as the source states them, for the method shown. Binding seen in cells or lysates may run through a third protein. Where a sequence is shown, tags or fusion partners need not be part of it.
